Measured values from publication PMC7554872.
Results are given in words; binding and its absence hold for the method and conditions named. Binding seen in cells or lysates may run through a third protein. Some results given as binding are weak or reduced against the parent protein; the word gives no strength.

Protein sequences, listed by entry. Tags and fused reporters are not part of them.
UniProt Q9EPW1: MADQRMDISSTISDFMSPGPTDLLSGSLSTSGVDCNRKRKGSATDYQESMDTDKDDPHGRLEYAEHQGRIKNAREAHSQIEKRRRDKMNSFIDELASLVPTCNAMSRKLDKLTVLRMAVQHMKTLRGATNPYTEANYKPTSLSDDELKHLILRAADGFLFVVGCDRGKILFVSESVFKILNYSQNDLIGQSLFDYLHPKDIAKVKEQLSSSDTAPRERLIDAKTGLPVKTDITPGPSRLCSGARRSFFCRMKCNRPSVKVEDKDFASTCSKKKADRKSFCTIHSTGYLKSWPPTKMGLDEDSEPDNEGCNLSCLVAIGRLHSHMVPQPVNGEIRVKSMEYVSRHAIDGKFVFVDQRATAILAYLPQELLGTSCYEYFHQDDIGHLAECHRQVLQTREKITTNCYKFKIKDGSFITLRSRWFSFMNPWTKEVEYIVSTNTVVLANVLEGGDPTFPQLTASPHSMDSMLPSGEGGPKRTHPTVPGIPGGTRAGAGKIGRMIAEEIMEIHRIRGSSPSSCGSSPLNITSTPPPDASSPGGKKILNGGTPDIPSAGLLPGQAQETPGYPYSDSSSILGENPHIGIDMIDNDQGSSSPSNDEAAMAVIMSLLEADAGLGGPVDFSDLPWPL
UniProt P12369: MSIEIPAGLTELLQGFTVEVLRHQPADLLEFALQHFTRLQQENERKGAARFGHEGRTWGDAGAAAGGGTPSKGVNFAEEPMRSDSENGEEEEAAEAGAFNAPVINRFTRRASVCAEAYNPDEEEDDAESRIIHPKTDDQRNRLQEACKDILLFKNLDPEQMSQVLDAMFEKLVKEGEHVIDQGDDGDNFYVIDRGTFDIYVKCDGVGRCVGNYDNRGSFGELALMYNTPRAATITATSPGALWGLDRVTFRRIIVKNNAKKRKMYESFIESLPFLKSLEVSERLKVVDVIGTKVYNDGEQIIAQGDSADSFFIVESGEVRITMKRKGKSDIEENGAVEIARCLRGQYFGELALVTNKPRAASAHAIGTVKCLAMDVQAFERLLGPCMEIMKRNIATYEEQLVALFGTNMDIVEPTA
UniProt P24587: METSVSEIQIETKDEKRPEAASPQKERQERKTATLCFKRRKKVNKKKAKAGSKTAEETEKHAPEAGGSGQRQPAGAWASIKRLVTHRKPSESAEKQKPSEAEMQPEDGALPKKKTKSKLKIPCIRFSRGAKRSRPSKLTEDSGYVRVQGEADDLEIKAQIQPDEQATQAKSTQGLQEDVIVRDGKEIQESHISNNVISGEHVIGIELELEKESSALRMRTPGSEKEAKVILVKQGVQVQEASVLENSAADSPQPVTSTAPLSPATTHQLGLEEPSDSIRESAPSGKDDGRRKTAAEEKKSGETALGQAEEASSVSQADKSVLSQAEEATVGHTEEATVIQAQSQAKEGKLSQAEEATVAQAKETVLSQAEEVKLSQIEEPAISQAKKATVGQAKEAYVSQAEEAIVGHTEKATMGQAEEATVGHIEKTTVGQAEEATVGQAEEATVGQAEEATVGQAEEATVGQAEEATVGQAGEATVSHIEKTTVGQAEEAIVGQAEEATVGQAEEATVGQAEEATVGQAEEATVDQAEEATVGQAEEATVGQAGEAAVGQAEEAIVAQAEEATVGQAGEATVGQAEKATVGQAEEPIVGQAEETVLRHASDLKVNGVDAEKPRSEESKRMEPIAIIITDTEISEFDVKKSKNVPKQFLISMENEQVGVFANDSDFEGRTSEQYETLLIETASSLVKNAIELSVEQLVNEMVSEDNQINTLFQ
UniProt P12368: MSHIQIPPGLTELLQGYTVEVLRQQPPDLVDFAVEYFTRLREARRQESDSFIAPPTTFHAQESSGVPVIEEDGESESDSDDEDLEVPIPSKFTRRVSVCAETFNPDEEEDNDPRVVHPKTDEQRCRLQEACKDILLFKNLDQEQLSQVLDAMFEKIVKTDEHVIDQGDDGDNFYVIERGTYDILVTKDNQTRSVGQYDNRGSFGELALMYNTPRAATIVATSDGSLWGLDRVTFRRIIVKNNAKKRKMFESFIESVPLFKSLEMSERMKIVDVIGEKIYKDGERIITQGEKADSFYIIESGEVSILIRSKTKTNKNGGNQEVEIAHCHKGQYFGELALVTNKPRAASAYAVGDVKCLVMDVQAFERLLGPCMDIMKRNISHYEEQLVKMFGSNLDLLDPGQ
UniProt P09456: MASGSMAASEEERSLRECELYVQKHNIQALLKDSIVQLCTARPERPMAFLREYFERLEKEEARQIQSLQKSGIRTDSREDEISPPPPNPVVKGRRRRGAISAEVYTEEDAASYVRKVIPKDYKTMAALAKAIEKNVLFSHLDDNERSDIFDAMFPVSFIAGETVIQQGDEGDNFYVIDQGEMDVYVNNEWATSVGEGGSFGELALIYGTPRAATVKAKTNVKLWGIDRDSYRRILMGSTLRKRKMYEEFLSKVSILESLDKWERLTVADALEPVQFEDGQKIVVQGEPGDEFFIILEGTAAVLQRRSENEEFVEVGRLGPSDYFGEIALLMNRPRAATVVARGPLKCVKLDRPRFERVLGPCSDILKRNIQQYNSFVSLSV

B1: adipose tissue triacylglycerol lipase (enzyme, UniProt P0C548 1-478)
chain: MFPRETKWNISFAGCGFLGVYHIGVASCLREHAPFLVANATHIYGASAGALTATALVTGACLGEAGANIIEVSKEARKRFLGPLHPSFNLVKTIRGCLLKTLPADCHTRASGRLGISLTRVSDGENVIISHFSSKDELIQANVCSTFIPVYCGLIPPTLQGVRYVDGGISDNLPLYELKNTITVSPFSGESDICPQDSSTNIHELRITNTSIQFNLRNLYRLSKALFPPEPMVLREMCKQGYRDGLRFLRRNGLLNQPNPLLALPPVVPQEEDAEEAAVTEERTGGEDRILEHLPARLNEALLEACVEPKDLMTTLSNMLPVRLATAMMVPYTLPLESAVSFTIRLLEWLPDVPEDIRWMKEQTGSICQYLVMRAKRKLGDHLPSRLSEQVELRRAQSLPSVPLSCATYSEALPNWVRNNLSLGDALAKWEECQRQLLLGLFCTNVAFPPDALRMRAPASPTATDPATPQDPSGLPPC
B2: Perilipin1 (protein, UniProt P43884 1-517)
chain: MSMNKGPTLLDGDLPEQENVLQRVLQLPVVSGTCECFQKTYNSTKEAHPLVASVCNAYEKGVQGASNLAAWSMEPVVRRLSTQFTAANELACRGLDHLEEKIPALQYPPEKIASELKGTISTRLRSARNSISVPIASTSDKVLGATLAGCELALGMAKETAEYAANTRVGRLASGGADLALGSIEKVVEYLLPPDKVESAPSSGRQKTQKAPKAKPSLLRRVSTLANTLSRHTMQTTARALKRGHSLAMWIPGVAPLSSLAQWGASAAMQVVSRRQSEVRVPWLHNLAASKDENHEDQTDTEGEETDEEEEEEESEAEENVLREVTALPTPLGFLGGVVHTVQKTLQNTISAVTWAPAAVLGTVGRILHLTPAQAVSSTKGRAMSLSDALKGVTDNVVDTVVHYVPLPRLSLMEPESEFQDIDNPPAEVERKGSGSRPASPESTARPGQPRAACAVRGLSAPSCPDLDDKTETSARPGLLAMPREKPARRVSDSFFRPSVMEPILGRTQYSQLRKKS

Target: Brain and muscle Arnt-like (BMAL)1 protein (rat (endogenous in primary adipocytes of Wistar rats)) (UniProt Q9EPW1)
Experiment: co-IP; lysate (1 mg/mL protein) of primary adipocytes from epididymal adipose tissue of E-SED, L-SED, E-EX and L-EX rats incubated with antibodies against BMAL1; immunocomplexes recovered on Dynabeads Protein G; blots with antibodies against each partner

binding, binds:
regulatory subunit RIIβ of PKA (from UniProt P12369 1-416), protein kinase A (PKA)-anchoring protein 150 (from UniProt P24587 1-714), regulatory subunit RIIα of PKA (from UniProt P12368 1-401), regulatory subunit RIα of PKA (from UniProt P09456 1-381), B1, B2
